Source: patent US20110167519A1
No constants are given. Whether binding was seen depends on the method and setting. Some results given as binding are weak or reduced against the parent protein; the word gives no strength. Values belong to the binder of their own block, whether it stands above or below them.

Target: T1, wild type maize endosperm AGP large subunit (SH2 protein, encoded by shrunken-2) (maize) (UniProt P55241)
T1 sequence (looked up): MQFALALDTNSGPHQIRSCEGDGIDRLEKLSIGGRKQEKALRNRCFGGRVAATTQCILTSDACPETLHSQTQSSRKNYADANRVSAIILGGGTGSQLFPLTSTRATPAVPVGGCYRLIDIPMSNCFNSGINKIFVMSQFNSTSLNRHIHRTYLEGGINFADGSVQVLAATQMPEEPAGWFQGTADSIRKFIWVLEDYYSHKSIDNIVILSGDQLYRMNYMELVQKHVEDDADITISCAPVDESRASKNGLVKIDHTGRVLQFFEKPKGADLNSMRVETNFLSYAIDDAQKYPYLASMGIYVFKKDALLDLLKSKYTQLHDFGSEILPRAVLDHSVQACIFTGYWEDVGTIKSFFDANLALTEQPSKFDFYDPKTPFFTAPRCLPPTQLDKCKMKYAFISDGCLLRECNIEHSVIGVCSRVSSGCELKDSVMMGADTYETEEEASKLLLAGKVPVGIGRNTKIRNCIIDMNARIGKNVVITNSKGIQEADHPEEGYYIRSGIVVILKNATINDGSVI
Experiment: blue native gel of purified E. coli-expressed AGP (small subunit with SH2 large subunit)

binding: binds
B1: QTCL mutant maize endosperm AGP small subunit (Tyr36 to Cys and a glutamine inserted between Ser34 and Thr35) (enzyme)
chain: MDMALASKASPPPWNATAAEQPIPKRDKAAANDSQTCLNPQAHDSVLGIILGGGAGTRLYPLTKKRAKPAVPLGANYRLIDIPVSNCLNSNISKIYVLTQFNSASLNRHLSRAYGSNIGGYKNEGFVEVLAAQQSPDNPNWFQGTADAVRQYLWLFEEHNVMEFLILAGDHLYRMDYEKFIQAHRETNADITVAALPMDEKRATAFGLMKIDEEGRIIEFAEKPKGEQLKAMMVDTTILGLDDVRAKEMPYIASMGIYVFSKDVMLQLLREQFPEANDFGSEVIPGATSIGKRVQAYLYDGYWEDIGTIAAFYNANLGITKKPIPDFSFYDRFAPIYTQPRHLPPSKVLDADVTDSVIGEGCVIKNCKINHSVVGLRSCISEGAIIEDSLLMGADYYETEADKKLLAEKGGIPIGIGKNSCIRRAIIDKNARIGDNVKILNADNVQEAAMETDGYFIKGGIVTVIKDALLPSGTVI

binding: binds
B2: wild type maize endosperm AGP small subunit (BT2 protein, encoded by brittle-2) (enzyme)
chain: MDMALASKASPPPWNATAAEQPIPKRDKAAANDSTYLNPQAHDSVLGIILGGGAGTRLYPLTKKRAKPAVPLGANYRLIDIPVSNCLNSNISKIYVLTQFNSASLNRHLSRAYGSNIGGYKNEGFVEVLAAQQSPDNPNWFQGTADAVRQYLWLFEEHNVMEFLILAGDHLYRMDYEKFIQAHRETNADITVAALPMDEKRATAFGLMKIDEEGRIIEFAEKPKGEQLKAMMVDTTILGLDDVRAKEMPYIASMGIYVFSKDVMLQLLREQFPEANDFGSEVIPGATSIGKRVQAYLYDGYWEDIGTIAAFYNANLGITKKPIPDFSFYDRFAPIYTQPRHLPPSKVLDADVTDSVIGEGCVIKNCKINHSVVGLRSCISEGAIIEDSLLMGADYYETEADKKLLAEKGGIPIGIGKNSCIRRAIIDKNARIGDNVKILNADNVQEAAMETDGYFIKGGIVTVIKDALLPSGTVI
